Test results as given in PubChem BioAssay AID248 (DTP/NCI, 2004).
The list does not hold the whole screen: it gathers tests that were run many times, whatever their T/C, doses with no T/C, and many T/C values between a quarter and a half above the control. Further doses and runs are listed elsewhere. T/C gives the treated animals as a percentage of the vehicle group. Some entries give survivors of the animals treated and no T/C: the source files T/C as zero there, which appears to mark a toxic dose or a test without result, not a measured value. Some survivor counts are full or nearly so, which does not show that the dose was tolerated: survival well below the control is almost never listed, so the zero probably covers shortened survival too. Survivors were counted at the toxicity check, usually on the fifth day, unless a day is given; later deaths do not show. Schedules are NCI's codes, taken here to give the interval after Q, in days (D) or hours (H), and the number of doses after X. Some schedules carry Z or #; the key to these is not given. For survival time, the PubChem record calls one and a half times the control and up active, and a quarter to a half above the control has no call in these data; cut-offs in other NCI protocols can differ. Some T/C values are followed by the survivors on the day toxicity was checked, most often the fifth; where none is given, no animal had died by that day. Some entries hold several experiments; their values stand side by side, smallest first. Marks such as (2×) give the number of equal values in this list.

System: L1210 leukemia ip in BDF1 mice, survival T/C
Assay: NCI In Vivo Anticancer Drug Screen. Data for tumor model L1210 Leukemia (intraperitoneal) in B6D2F1 (BDF1) mice
Details: T/C endpoint: mean survival time, higher T/C = longer survival

O=P1(N(CCCl)CCCl)NCCCO1 (stereo not given)
T/C (dose: 150.0 mg/kg/injection, schedule: Q01DX001 (ip), vehicle: water, evaluated on day 60): 164, 179, 290 % of control
T/C (dose: 150.0 mg/kg/injection, schedule: Q02DX010 (ip), vehicle: carboxymethylcellulose (CMC)): 99, 103, 113, 114, 118 % of control
T/C (dose: 180.0 mg/kg/injection, schedule: Q01DX001 (ip), vehicle: saline, evaluated on day 5): 412 and 443 % of control
T/C (dose: 180.0 mg/kg/injection, schedule: Q01DX001 (ip), vehicle: saline, evaluated on day 60): 179 % of control
T/C (dose: 180.0 mg/kg/injection, schedule: Q01DX001 (ip), vehicle: saline, evaluated on day 69): 358 % of control
survivor count (dose: 180.0 mg/kg/injection, schedule: Q01DX010 (ip), vehicle: saline): 6 of 6
T/C (dose: 200.0 mg/kg/injection, schedule: Q01DX001 (ip), vehicle: saline, evaluated on day 5): 175, 186, 203, 399, 408 % of control
T/C (dose: 200.0 mg/kg/injection, schedule: Q01DX001 (ip), vehicle: saline, evaluated on day 7): 340 and 408 % of control
T/C (dose: 200.0 mg/kg/injection, schedule: Q01DX001 (ip), vehicle: saline, evaluated on day 30): 108, 163, 180, 185, 212, 218, 220, 238, 252, 277, 279, 305, 306 % of control
T/C (dose: 200.0 mg/kg/injection, schedule: Q01DX001 (ip), vehicle: saline, evaluated on day 35): 245 % of control
T/C (dose: 200.0 mg/kg/injection, schedule: Q01DX001 (ip), vehicle: saline, evaluated on day 45): 175, 204, 219, 247, 277, 300, 377 % of control
T/C (dose: 200.0 mg/kg/injection, schedule: Q01DX001 (ip), vehicle: saline, evaluated on day 60): 145, 275, 276, 289, 300, 304, 432, 534 % of control
T/C (dose: 200.0 mg/kg/injection, schedule: Q01DX001 (ip), vehicle: saline, evaluated on day 63): 413 % of control
T/C (dose: 200.0 mg/kg/injection, schedule: Q01DX001 (ip), vehicle: saline, evaluated on day 64): 340 % of control
T/C (dose: 200.0 mg/kg/injection, schedule: Q01DX001 (ip), vehicle: saline, run until all animals had died): 244 and 262 % of control
survivor count (dose: 200.0 mg/kg/injection, schedule: Q01DX Z (ip), vehicle: saline): 6 of 6
survivor count (dose: 200.0 mg/kg/injection, schedule: Q#A X Z (ip), vehicle: saline): 0 of 6
T/C (dose: 225.0 mg/kg/injection, schedule: Q01DX001 (ip), vehicle: saline, evaluated on day 60): 231 and 542 % of control
T/C (dose: 225.0 mg/kg/injection, schedule: Q01DX001 (ip), vehicle: saline, run until all animals had died): 241 and 275 % of control
T/C (dose: 225.0 mg/kg/injection, schedule: Q02DX010 (ip), vehicle: carboxymethylcellulose (CMC)): 86, 93, 97 (2×), 98 % of control
T/C (dose: 234.0 mg/kg/injection, schedule: Q04DX002 (ip), vehicle: saline): 270, 272, 300, 302 % of control
T/C (dose: 250.0 mg/kg/injection, schedule: Q01DX001 (ip), vehicle: saline, evaluated on day 5): 464 % of control
T/C (dose: 250.0 mg/kg/injection, schedule: Q01DX001 (ip), vehicle: saline, evaluated on day 30): 167 and 269 % of control
T/C (dose: 250.0 mg/kg/injection, schedule: Q01DX001 (ip), vehicle: saline, evaluated on day 38): 98 % of control [5 of 6 alive]
T/C (dose: 250.0 mg/kg/injection, schedule: Q01DX001 (ip), vehicle: saline, evaluated on day 60): 577 % of control
T/C (dose: 250.0 mg/kg/injection, schedule: Q01DX001 (ip), vehicle: water): 137 % of control
survivor count (dose: 282.0 mg/kg/injection, schedule: Q07DX002 (ip), vehicle: saline): 7 of 10
T/C (dose: 300.0 mg/kg/injection, schedule: Q01DX001 (ip), vehicle: saline with Tween-80): 139 % of control [7 of 10 alive]
T/C (dose: 300.0 mg/kg/injection, schedule: Q01DX001 (ip), vehicle: saline, evaluated on day 5): 407 and 510 % of control
T/C (dose: 300.0 mg/kg/injection, schedule: Q01DX001 (ip), vehicle: saline, evaluated on day 20): 294 % of control
T/C (dose: 300.0 mg/kg/injection, schedule: Q01DX001 (ip), vehicle: saline, evaluated on day 30): 146, 207, 208 [4 of 6 alive], 237, 241, 260, 267 [5 of 6 alive], 274, 288, 290, 308, 326, 333 % of control
T/C (dose: 300.0 mg/kg/injection, schedule: Q01DX001 (ip), vehicle: saline, evaluated on day 45): 337, 386, 442, 510, 517, 540 % of control
T/C (dose: 300.0 mg/kg/injection, schedule: Q01DX001 (ip), vehicle: saline, evaluated on day 60): 352, 353 [7 of 8 alive], 364, 528, 556, 570, 596 % of control
T/C (dose: 300.0 mg/kg/injection, schedule: Q01DX001 (ip), vehicle: saline, evaluated on day 69): 449 % of control
T/C (dose: 300.0 mg/kg/injection, schedule: Q01DX001 (ip), vehicle: water, evaluated on day 4): 462 and 644 % of control
T/C (dose: 300.0 mg/kg/injection, schedule: Q01DX001 (ip), vehicle: water, evaluated on day 5): 476, 520, 574 % of control
T/C (dose: 300.0 mg/kg/injection, schedule: Q01DX001 (ip), vehicle: water, evaluated on day 30): 409 [9 of 10 alive] and 457 % of control
T/C (dose: 300.0 mg/kg/injection, schedule: Q01DX001 (ip), vehicle: water, evaluated on day 60): 482, 574, 659 % of control
survivor count (dose: 300.0 mg/kg/injection, schedule: Q#A X Z (ip), vehicle: saline): 0 of 6
T/C (dose: 400.0 mg/kg/injection, schedule: Q01DX001 (ip), vehicle: saline, evaluated on day 5): 416 % of control
T/C (dose: 400.0 mg/kg/injection, schedule: Q01DX001 (ip), vehicle: saline, evaluated on day 6): 184 % of control
T/C (dose: 400.0 mg/kg/injection, schedule: Q01DX001 (ip), vehicle: saline, evaluated on day 7): 108, 164, 353 % of control
T/C (dose: 400.0 mg/kg/injection, schedule: Q01DX001 (ip), vehicle: saline, evaluated on day 30): 137 [5 of 6 alive], 207, 210, 290, 290 [5 of 6 alive], 292 [5 of 6 alive], 305 [5 of 6 alive], 333 [4 of 6 alive], 333 % of control [5 of 6 alive] (2×)
T/C (dose: 400.0 mg/kg/injection, schedule: Q01DX001 (ip), vehicle: saline, evaluated on day 31): 184 % of control
T/C (dose: 400.0 mg/kg/injection, schedule: Q01DX001 (ip), vehicle: saline, evaluated on day 60): 162 [8 of 10 alive], 206, 526 % of control
